Record: PubChem BioAssay AID1259405 (NCATS, 2018)

Aim: 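Mouse-designed siRNAs used to find CHO productivity engineering targets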 (primary screen)
System: Chinese hamster CHO-K1 ovary cells with stable secreted eGFP expression
Reagent: single siRNA against mouse genes, 0.8 pmol siRNA per well (2 µl of 400 nM stock)
Timing: 3 days
Measurement: 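Percent of the per-plate non-targeting control median for intracellular GFP per well by laser scanning cytometry and for cell viability by ATP luminescence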
Reading the numbers: GFP, % of control: higher = more GFP per well, higher productivity; viability (ATP), % of control: higher = more viable cells (more ATP)
Call rule: 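a knock-down is called active if GFP reaches 120% or more of non-targeting control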
The deposit covers about 50,000 reagents; below is a part drawn at random. Of all reagents, about 4,000 (8%) are marked active. 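Mouse siRNA library applied to hamster cells; one well for each siRNA.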 Entries without a mark were called inactive. The numbers tell different reagents against one gene apart.

Gcsam (GeneID 14525) #1 gave GFP, % of control 55; viability (ATP), % of control 62.9. After knock-down of Gcsam (GeneID 14525) #2 the results were GFP, % of control 53.6; viability (ATP), % of control 49.6. For Gcsam (GeneID 14525) #3, the entry reads GFP, % of control 107; viability (ATP), % of control 47.1. Silencing of Ky (GeneID 16716) #1 gave: GFP, % of control 70.4; viability (ATP), % of control 74.1. After knock-down of Ky (GeneID 16716) #2 the results were GFP, % of control 60; viability (ATP), % of control 52.8. Ky (GeneID 16716) #3 showed GFP, % of control 65.6; viability (ATP), % of control 91.

For Slc22a26 (GeneID 236149) #1, the values are GFP, % of control 32; viability (ATP), % of control 45. For Slc22a26 (GeneID 236149) #2 the deposit lists GFP, % of control 52.1; viability (ATP), % of control 71.3. Depletion of Slc22a26 (GeneID 236149) #3 gave: GFP, % of control 80.4; viability (ATP), % of control 50.5. With knock-down of Ush1g (GeneID 16470) #1, the screen gave GFP, % of control 67.3; viability (ATP), % of control 79. Ush1g (GeneID 16470) #2 gave GFP, % of control 66.9; viability (ATP), % of control 82.1. Against Ush1g (GeneID 16470) #3, the values are GFP, % of control 50.2; viability (ATP), % of control 79.9.

With knock-down of Rps10 (GeneID 67097) #1, the record shows GFP, % of control 53.4; viability (ATP), % of control 71.5. For Rps10 (GeneID 67097) #2 the deposit lists GFP, % of control 90.6; viability (ATP), % of control 120. Against Rps10 (GeneID 67097) #3 the deposit lists GFP, % of control 91.9; viability (ATP), % of control 78.2. After knock-down of Fhl2 (GeneID 14200) #1 the results were GFP, % of control 40.4; viability (ATP), % of control 34.4. Against Fhl2 (GeneID 14200) #2, the values are GFP, % of control 77.3; viability (ATP), % of control 57.8. Against Fhl2 (GeneID 14200) #3, the values are GFP, % of control 78.4; viability (ATP), % of control 91.2.

Mri1 (GeneID 67873) #1 scored GFP, % of control 100; viability (ATP), % of control 80.5. Mri1 (GeneID 67873) #2 gave GFP, % of control 40.4; viability (ATP), % of control 47.2. Mri1 (GeneID 67873) #3 showed GFP, % of control 57.8; viability (ATP), % of control 57.8.

Copied from the list:
Slc22a26 (GeneID 236149) #1, GFP, % of control → 32
Fhl2 (GeneID 14200) #3, GFP, % of control = 78.4
Result for Slc22a26 (GeneID 236149) #2 under “GFP, % of control”: 52.1
For “viability (ATP), % of control”, Rps10 (GeneID 67097) #2 is entered as 120
For “viability (ATP), % of control”, Mri1 (GeneID 67873) #1 is entered as 80.5
Slc22a26 (GeneID 236149) #3, viability (ATP), % of control: 50.5

Additional entries:
Knock-down of 1810009A15Rik (GeneID 66276) #1 came out at: GFP, % of control 75.3; viability (ATP), % of control 100. Knock-down of 1810009A15Rik (GeneID 66276) #2 resulted in: GFP, % of control 53.4; viability (ATP), % of control 50.5. 1810009A15Rik (GeneID 66276) #3 scored GFP, % of control 64.4; viability (ATP), % of control 63.9. Epb41l5 (GeneID 226352) #1 scored GFP, % of control 119; viability (ATP), % of control 81.5. Knock-down of Epb41l5 (GeneID 226352) #2 came out at: GFP, % of control 86.5; viability (ATP), % of control 61.5. Epb41l5 (GeneID 226352) #3 scored GFP, % of control 89.6; viability (ATP), % of control 92.2.

Xirp2 (GeneID 241431) #1 scored GFP, % of control 95; viability (ATP), % of control 90.1. Xirp2 (GeneID 241431) #2 gave GFP, % of control 78.5; viability (ATP), % of control 70.1. Xirp2 (GeneID 241431) #3 gave GFP, % of control 68.9; viability (ATP), % of control 82.7. Knock-down of Prlr (GeneID 19116) #1 gave: GFP, % of control 107; viability (ATP), % of control 114. Silencing of Prlr (GeneID 19116) #2 gave: GFP, % of control 40.3; viability (ATP), % of control 73.5. Knock-down of Prlr (GeneID 19116) #3 gave: GFP, % of control 72; viability (ATP), % of control 68.9.

Arl6ip4 (GeneID 65105) #1 scored GFP, % of control 53.4; viability (ATP), % of control 61.4. Silencing of Arl6ip4 (GeneID 65105) #2 resulted in: GFP, % of control 54.9; viability (ATP), % of control 66. Depletion of Arl6ip4 (GeneID 65105) #3 came out at: GFP, % of control 90.3; viability (ATP), % of control 95.8. For Ncapd2 (GeneID 68298) #1 the deposit lists GFP, % of control 97.4; viability (ATP), % of control 60.8. Against Ncapd2 (GeneID 68298) #2, the values are GFP, % of control 81.9; viability (ATP), % of control 60.2. Depletion of Ncapd2 (GeneID 68298) #3 came out at: GFP, % of control 34.2; viability (ATP), % of control 62.2.

Stat6 (GeneID 20852) #1 scored GFP, % of control 51.3; viability (ATP), % of control 62.9. Against Stat6 (GeneID 20852) #2 the deposit lists GFP, % of control 61.3; viability (ATP), % of control 34.7. After knock-down of Stat6 (GeneID 20852) #3, the screen gave GFP, % of control 63; viability (ATP), % of control 63.8.
